PubChem BioAssay AID1259327 | Drosophila RNAi Screening Center, 2017

Aim: 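Knock-downs altering cellular ATP with no metal added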
System: Drosophila S2R+ cells
Reagent: long dsRNA against Drosophila genes
Duration: 5 days (water added on day 4, read one day later)
Treatment: water added as vehicle, no metal, one day before read-out
Measurement: 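Luciferase ATP signal per well, normalised to plate mean, duplicate average converted to z-score across plates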
Direction: ATP z-score: higher = more total ATP than typical wells; ATP luminescence: higher = more total ATP
Call rule: 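Called active when the ATP z-score exceeds 1.5 or falls below -1.5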
Meaning of the calls: active = hit: ATP up or down; inactive = no clear ATP change
The whole screen tested about 3,100 reagents; this is a part drawn at random. Over the whole deposit, 378 (12%) got an active call. 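Hits include both directions; z-score sign shows ATP rise or fall; raw luminescence values are not plate-normalised.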 Entries without a mark were called inactive. Names joined by + are all predicted targets of the reagent. No sequences are given here. Not stated in the record: the amount of reagent.

no.	gene	dsRNA	ATP z-score, duplicate mean	ATP luminescence, replicate 1 (RLU)	ATP luminescence, replicate 2 (RLU)
1	CG7806	DRSC03071	1.35	4.56e5	6.99e5
2	CG7806	DRSC39811	1.6 (active)	5.42e5	6.43e5
3	CG14743	DRSC06479	0.747	6.27e5	7.48e5
4	CG14743	DRSC39688	-2.06 (active)	3.35e5	3.14e5
5	CG8051	DRSC20077	0.348	7.22e5	8.42e5
6	CG8051	DRSC26855	0.0509	9.33e5	1.00e6
7	fz3	DRSC18779	-0.936	5.05e5	7.33e5
8	fz3	DRSC29682	0.417	9.34e5	8.17e5
9	if	DRSC20341	-0.411	6.77e5	7.20e5
10	if	DRSC39458	-0.426	4.43e5	4.07e5
11	Syx5	DRSC03432	-1.6 (active)	3.29e5	4.07e5
12	nAChRbeta2	DRSC17010	-0.0463	7.19e5	6.83e5
13	CG31272	DRSC16058	-0.361	2.91e5	7.01e5
14	CG31272	DRSC37457	0.248	5.89e5	6.12e5
15	Zip99C	DRSC16320	-0.944	5.97e5	6.19e5
16	aph-1	DRSC00547	0.0577	4.79e5	4.88e5
17	aph-1	DRSC39729	-0.141	4.67e5	4.44e5
18	NaCP60E	DRSC04307	-0.331	7.09e5	6.81e5
19	NaCP60E	DRSC26120	0.467	8.80e5	9.37e5
20	Tmep	DRSC08215	-0.367	6.55e5	7.30e5
21	Tmep	DRSC26652	1.1	1.24e6	1.43e6
22	Baldspot	DRSC09671	-0.857	8.26e5	7.43e5
23	Sply	DRSC07299	-1.52 (active)	5.31e5	5.97e5
24	Sply	DRSC27378	-0.824	9.12e5	9.52e5
25	kek2	DRSC03552	1.14	8.72e5	8.22e5
26	kek2	DRSC26189	0.332	8.89e5	8.94e5
27	CG33012	DRSC06287	-1.69 (active)	4.48e5	4.86e5
28	CG33012	DRSC06288	0.312	7.18e5	8.38e5
29	PGAP1	DRSC18286	0.0995	7.24e5	7.08e5
30	PGAP1	DRSC28989	1.51 (active)	1.05e6	9.65e5
31	nemy	DRSC05357	0.739	8.10e5	8.36e5
32	nemy	DRSC26532	0.596	7.91e5	8.21e5
33	Gr66a	DRSC10783	0.267	9.58e5	9.04e5
34	Gr66a	DRSC39878	0.722	5.57e5	7.45e5
35	CG1494	DRSC20509	1.69 (active)	9.68e5	8.80e5
36	drl	DRSC03523	0.877	4.49e5	6.38e5
37	drl	DRSC28564	0.0597	1.01e6	6.66e5
38	drl	DRSC37026	-0.737	4.80e5	5.55e5
39	sit	DRSC15760	1.19	3.06e5	1.01e6
40	sit	DRSC25250	1.92 (active)	1.12e6	1.06e6
41	Kua	DRSC02100	0.144	7.56e5	7.27e5
42	CG3625	DRSC00008	-1.14	6.20e5	6.18e5
43	CG3625	DRSC00621	-0.313	4.19e5	4.98e5
44	blot	DRSC11328	-0.424	6.97e5	6.74e5
45	blot	DRSC26157	0.713	9.40e5	9.38e5
46	CCKLR-17D3	DRSC20017	-0.0309	7.15e5	7.64e5
47	CCKLR-17D3	DRSC23715	0.352	7.93e5	9.96e5
48	CG42816	DRSC11230	-0.583	8.28e5	8.11e5
49	CG14196	DRSC19551	0.397	7.88e5	7.83e5
50	CG14196	DRSC26030	-0.0796	8.22e5	8.59e5
51	hoe2	DRSC00459	0.198	7.35e5	7.59e5
52	hoe2	DRSC39471	1.13	4.79e5	5.74e5
53	CG6845	DRSC08576	-0.391	7.18e5	6.59e5
54	CG6845	DRSC26319	0.0406	7.61e5	9.51e5
55	PGRP-LF	DRSC28930	-0.166	8.63e5	7.48e5
56	l(1)1Bb + ebo	DRSC28174	0.967	7.52e5	9.68e5
57	l(1)1Bb + ebo	DRSC39798	0.79	5.37e5	5.31e5
58	Or43b	DRSC07486	-0.453	5.28e5	6.30e5
59	Or43b	DRSC29565	0.144	9.40e5	7.49e5
60	Or65b	DRSC08809	-0.252	6.75e5	7.58e5
61	Or65b	DRSC39719	1.85 (active)	5.83e5	5.99e5
62	Ekar	DRSC17161	-1.05	5.51e5	7.04e5
63	Ekar	DRSC24931	1.13	1.13e6	8.50e5
64	CG5646	DRSC15853	0.0128	6.62e5	7.51e5
65	CG5646	DRSC29759	-0.143	8.35e5	7.78e5
66	sut2	DRSC07701	0.389	7.43e5	8.03e5
67	sut2	DRSC39500	-1.31	3.63e5	3.69e5
68	CG10465	DRSC04848	-0.478	7.10e5	6.41e5
69	CG10465	DRSC39896	-0.248	5.16e5	6.16e5
70	Gr93a	DRSC14593	-0.285	2.73e5	7.66e5
71	Gr93a	DRSC39755	1.44	5.54e5	5.73e5
72	CG32301	DRSC08613	1.12	7.27e5	7.16e5
73	CG32301	DRSC39589	-1.03	4.23e5	3.66e5
74	Osi16	DRSC21323	-0.402	5.24e5	5.67e5
75	Arv1	DRSC11491	-0.721	6.95e5	6.69e5
76	NLaz	DRSC21521	0.23	5.41e5	6.58e5
77	Inx2	DRSC18783	-0.051	7.03e5	6.97e5
78	Inx2	DRSC24455	-0.599	8.28e5	7.23e5
79	CG2187	DRSC15425	-0.386	7.02e5	7.38e5
80	CG2187	DRSC25548	-0.881	7.05e5	7.27e5
81	CG13077	DRSC02181	-0.972	6.24e5	6.22e5
82	CG13077	DRSC39515	-0.00946	5.12e5	3.96e5
83	Fur1	DRSC13707	0.965	1.14e6	9.12e5
84	Fur1	DRSC16676	1.35	8.98e5	7.94e5
85	CG8323	DRSC07149	1.66 (active)	7.79e5	7.60e5
86	Spg7	DRSC18469	0.333	6.27e5	7.17e5
87	Spg7	DRSC39600	-0.281	3.98e5	4.96e5

5 entries from above, arranged by “ATP luminescence, replicate 1 (RLU)”, low to high:
gene	dsRNA	ATP z-score, duplicate mean	ATP luminescence, replicate 1 (RLU)	ATP luminescence, replicate 2 (RLU)
CG14743	DRSC39688	-2.06 (active)	3.35e5	3.14e5
fz3	DRSC18779	-0.936	5.05e5	7.33e5
CG14743	DRSC06479	0.747	6.27e5	7.48e5
CG8051	DRSC20077	0.348	7.22e5	8.42e5
CG8051	DRSC26855	0.0509	9.33e5	1.00e6
